Measurements as given in the supplement of paper PMC8846439.
Where a name gives a salt, the structure may show the parent alone. The list shows a part of the results. Repeats are few or missing, and single values can be far off.

What follows are molecules tested on Trypanosoma brucei brucei bloodstream form L262P (kDNA-independent) (assay: viability Z-score (nuclei count per well, median-polish normalised, relative to plate distribution); higher = more viable parasites (negative = growth inhibition)). Conditions: 4 days; compound concentration: 10 µM (some Prestwick/PKE rows may be 1 µM / not distinguished).

SMILES | viability Z-score
[Cl]/C1=C/C=C(C=C1)C2=N[S]C=3C2=NC=NC=3N6CCN(CC=5C=C4OCOC4=CC=5)CC6 | -6.26
Cc1nn(-c2ccc(F)cc2F)c2c1C(Cl)=C(/C=N/Nc1cc(C(F)(F)F)cc(C(F)(F)F)c1)CC2 | -6.94
O=C(N/C1=C/N(N=C1)CC=2C=CC=CC=2C)C=3C=C(N=C4C=3C=C/C=C4/C)C5=CC=NC=C5 | -2.39
O=C(COC=1C=CC([Cl])=CC=1[Br])N(C)C/C2=C/C=CC=C2 | -2.66
CNC(=O)CN(c1cccc(C(F)(F)F)c1)S(=O)(=O)c1ccccc1 | -5.01
O=C(/C2=C(\C)NC=1CCCC(=O)C=1[C@]2([H])C3=CC([Br])=C(O)C(=C3)OCC)N4CCCCC4 | -3.58
N#C/C4=C3\N=NC(NC=1N/N=C(/C)C=1C=2C=CC=CC=2)=C(C)N3/N=C4/C=5C=CC=CC=5 | -5.68
O=C(NC/C2=C/C=1OCOC=1C=C2)C34CC5([H])CC([H])(C3)C[C@]([H])(C4)C5 | -6.1
CC(C)C[C@@H](C=O)NC(=O)[C@H](CC(C)C)NC(=O)[C@H](CC(C)C)NC(=O)OCc1ccccc1 | -5.54
CCCCCCC[N+](CC)(CC)CCCCc1ccc(Cl)cc1 [Clofilium tosylate] | -3.33
Cc1nc(NC(=O)C2CCCCC2)sc1C(=O)Nc1ccc2c(c1)OCCO2 | -2.17
N#C/C1=C(\NC(=O)OC)[S]/C=C1/C=2/C=C(/C)C=CC=2C | -4.01
CCCCC(CC)CN=C(N)NC(N)=NCCCCCCN=C(N)NC(N)=NCC(CC)CCCC.Cl.Cl (stereo unspecified) [Alexidine dihydrochloride] | -1.72
CCCCCCCCCCCCC/C=C/[C@@H](O)[C@@H](N)CO [D-erythro-Sphingosine] | -2.58
COc1ccc(N2CCN([C@@H](CNS(C)(=O)=O)c3cccnc3)CC2)cc1 | -3.65
Cc1ccc2c(c1)/C(=C1\SC(=NO)NC1=O)C(=O)N2 | -4.23
O=C(C=1/C=C(/[Cl])C=CC=1OC)N(C)C/C2=C/C=CC=C2 | -1.41
C/C1=C/C(=C/C=C1/OC)C=2N=C([S]C=2)C=3/C=C(/OC)C(=CC=3)OC | -2.71
OC=2N=C1C=CC=CC1=NC=2/C3=C/NC=4C=CC=CC3=4 | -3.29
N/C2=N/C1=N[S]C(N)=C1C(=N2)NCC=C | -7
O=C(N/C2=N/C=1CCCCC=1[S]2)CN3/N=C(/C)C=C3C | -5.75
O=C4C1=C([S]/C(=C1/C)C(=O)N2CCN(CC2)C3=CC([Cl])=CC=C3)N=CN4CC(=O)NC=5C=C(C=CC=5)C([F])([F])[F] | -1.82
CN([C@H](Cc1ccc(OS(=O)(=O)c2cccc3cnccc23)cc1)C(=O)N1CCN(c2ccccc2)CC1)S(=O)(=O)c1cccc2cnccc12 | -3.86
C/C1=C/C[C@@]2([H])C[C@]1([H])[C@@]([H])(OC2)C=4/C=[N+](/CC=3C=CC=CC=3)C=CC=4 | -3.56
O=C(CC=1[S]C=CC=1)N3CCC2=CC(OC)=C(C=C2[C@@]3([H])CO/C4=C/C=C(C=C4)C(=O)OC)OC | -6.07
C[C@H]1CCc2ccccc2N1C(=N)N(C)C | -1.1

Two successive entries already listed, quoted:
SMILES | viability Z-score
CN([C@H](Cc1ccc(OS(=O)(=O)c2cccc3cnccc23)cc1)C(=O)N1CCN(c2ccccc2)CC1)S(=O)(=O)c1cccc2cnccc12 | -3.86
C/C1=C/C[C@@]2([H])C[C@]1([H])[C@@]([H])(OC2)C=4/C=[N+](/CC=3C=CC=CC=3)C=CC=4 | -3.56
